Results as given in patent US20040053822A1.
These are yes or no findings as the source states them, for the method shown.

Experiments:
Assay in all cases: inhibition of 125I probe peptide binding to purified HLA
HLA-DRB1*0401 (human) = target: HLA-DRB1*0401 (human)
HLA-DRB1*0701 (human) = target: HLA-DRB1*0701 (human)
HLA-DRB1*0101 (human) = target: HLA-DRB1*0101 (human)
HLA-DRB1*0301 (human) = target: HLA-DRB1*0301 (human)

| Binder | binding (HLA-DRB1*0401 (human)) | binding (HLA-DRB1*0701 (human)) | binding (HLA-DRB1*0101 (human)) | binding (HLA-DRB1*0301 (human)) |
| --- | --- | --- | --- | --- |
| DGLLGDNQIMPKAGL | no binding (tested: ratio < 0.0032) | no binding (tested: ratio < 0.0011) | no binding (tested: ratio < 0.0003) | – |
| DGLLGDNQVMPKTGL | no binding (tested: ratio < 0.0032) | no binding (tested: ratio < 0.0011) | no binding (tested: ratio < 0.0005) | – |

The next lines start with the values.

| binding (HLA-DRB1*0401 (human)) | binding (HLA-DRB1*0701 (human)) | binding (HLA-DRB1*0101 (human)) | binding (HLA-DRB1*0301 (human)) | Binder |
| --- | --- | --- | --- | --- |
| no binding (tested: ratio < 0.0032) | no binding (tested: ratio < 0.0011) | no binding (tested: ratio < 0.0005) | – | LGEVPAADSPSPPHS |
| – | – | – | no binding (tested: ratio < 0.0025) | LAIIAREGDCAPEEK |
| – | – | – | no binding (tested: ratio < 0.0025) | CLGLSYDGLLGDNQI |
